Assay results reported in doi:10.1101/2024.04.12.589178.
No constants are given. Whether binding was seen depends on the method and setting. Binding seen in cells or lysates may run through a third protein. These calls come from enrichment with a bait or labelling near it, and not all partners need be listed.

T1: MIC60 (human (endogenous in HEK293T)) (UniProt Q16891)
T1 sequence: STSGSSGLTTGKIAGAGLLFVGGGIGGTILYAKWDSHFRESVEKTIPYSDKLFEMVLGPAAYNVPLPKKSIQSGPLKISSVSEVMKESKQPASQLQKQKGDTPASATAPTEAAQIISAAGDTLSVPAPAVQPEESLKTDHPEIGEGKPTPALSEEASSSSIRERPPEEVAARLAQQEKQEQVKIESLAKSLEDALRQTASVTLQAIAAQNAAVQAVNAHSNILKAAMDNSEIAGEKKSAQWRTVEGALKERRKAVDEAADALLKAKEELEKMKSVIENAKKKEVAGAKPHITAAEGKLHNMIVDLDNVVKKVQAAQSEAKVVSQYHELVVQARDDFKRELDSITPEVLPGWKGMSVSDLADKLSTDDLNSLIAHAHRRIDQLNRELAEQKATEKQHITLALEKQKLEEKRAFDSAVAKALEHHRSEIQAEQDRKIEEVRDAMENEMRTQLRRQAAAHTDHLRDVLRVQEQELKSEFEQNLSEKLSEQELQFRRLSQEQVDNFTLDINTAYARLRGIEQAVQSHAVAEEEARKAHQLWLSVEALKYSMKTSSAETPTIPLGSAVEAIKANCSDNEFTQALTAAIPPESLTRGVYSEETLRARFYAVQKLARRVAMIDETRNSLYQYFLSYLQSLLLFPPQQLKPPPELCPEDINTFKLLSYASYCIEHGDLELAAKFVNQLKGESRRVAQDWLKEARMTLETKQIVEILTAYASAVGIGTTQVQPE

T2: MPV17-BirA* (human) (UniProt P39210)
T2 sequence: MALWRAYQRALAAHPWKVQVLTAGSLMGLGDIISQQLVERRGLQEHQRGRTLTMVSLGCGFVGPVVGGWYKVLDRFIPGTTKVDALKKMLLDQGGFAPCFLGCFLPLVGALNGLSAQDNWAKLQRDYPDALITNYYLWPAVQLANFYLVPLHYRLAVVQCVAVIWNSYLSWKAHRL


How the values were obtained:
[1] = molecular target: T1, MIC60 (human (endogenous in HEK293T)); test: affinity purification with mass spectrometry
MPV17-BirA* (human) = molecular target: T2, MPV17-BirA* (human); test: proximity labelling

Row | binding [1] | binding (MPV17-BirA* (human)) | Binder
1 | binds | – | MPV17 (endogenous) (protein, UniProt P39210 1-176) MALWRAYQRALAAHPWKVQVLTAGSLMGLGDIISQQLVERRGLQEHQRGRTLTMVSLGCGFVGPVVGGWYKVLDRFIPGTTKVDALKKMLLDQGGFAPCFLGCFLPLVGALNGLSAQDNWAKLQRDYPDALITNYYLWPAVQLANFYLVPLHYRLAVVQCVAVIWNSYLSWKAHRL
2 | – | binds | DNAJC11 (protein, UniProt Q9NVH1 1-559) MATALSEEELDNEDYYSLLNVRREASSEELKAAYRRLCMLYHPDKHRDPELKSQAERLFNLVHQAYEVLSDPQTRAIYDIYGKRGLEMEGWEVVERRRTPAEIREEFERLQREREERRLQQRTNPKGTISVGVDATDLFDRYDEEYEDVSGSSFPQIEINKMHISQSIEAPLTATDTAILSGSLSTQNGNGGGSINFALRRVTSAKGWGELEFGAGDLQGPLFGLKLFRNLTPRCFVTTNCALQFSSRGIRPGLTTVLARNLDKNTVGYLQWRWGIQSAMNTSIVRDTKTSHFTVALQLGIPHSFALISYQHKFQDDDQTRVKGSLKAGFFGTVVEYGAERKISRHSVLGAAVSVGVPQGVSLKVKLNRASQTYFFPIHLTDQLLPSAMFYATVGPLVVYFAMHRLIIKPYLRAQKEKELEKQRESAATDVLQKKQEAESAVRLMQESVRRIIEAEESRMGLIIVNAWYGKFVNDKSRKSEKVKVIDVTVPLQCLVKDSKLILTEASKAGLPGFYDPCVGEEKNLKVLYQFRGVLHQVMVLDSEALRIPKQSHRIDTDG
